Data as given in PubChem BioAssay AID743456 (Peter MacCallum Cancer Centre, 2014)
This is one part, drawn at random, of 878 reagents tested. Of all reagents, 27 (3.1%) got an active call. 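27 mimics are marked active, unlike an earlier stated count of 24; the viability threshold is described inconsistently.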 Not stated in the record: the amount of reagent.

- Aim: 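miRNA mimics altering how resistant colon cancer cells respond to vorinostat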 (primary screen)
- System: human HCT116-VR colon cancer cells, a vorinostat-resistant HCT116 line
- Reagent: miRNA mimic
- Duration: about 3 days from transfection to readout; drug present for the last 24 h
- Treatment: vorinostat at 2.5 µM final for 24 h
- Read-out: 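Cell viability from CellTiter-Fluor signal and caspase activity from luminescence after 24 h vorinostat at 2.5 µM, given as robust z-scores and as ratios to mock-transfected wells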
- Direction: viability robust z-score and viability vs mock transfection: higher = more viable cells; caspase robust z-score: higher = more caspase activity, more apoptosis
- Hit rule: 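Active when viability drops or caspase activity climbs beyond robust z thresholds, with wells of poor cell health excluded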

| miRNA | PubChem SID | viability robust z-score | caspase robust z-score | viability hit class | caspase hit class | viability vs mock transfection | outcome |
| --- | --- | --- | --- | --- | --- | --- | --- |
| hsa-miR-654-3p | SID160648439 | -1.23 | 1.06 | no change | no change | 0.53 | inactive |
| hsa-miR-19b-1* | SID160648338 | -3.25 | 0.68 | reduced viability | no change | 0.3 | active |
| hsa-miR-668 | SID160648318 | 0.54 | -0.5 | no change | no change | 0.88 | inactive |
| hsa-miR-299-3p | SID160648015 | -0.42 | 0.8 | no change | no change | 0.72 | inactive |
| hsa-miR-184 | SID160647996 | 0.19 | 1.18 | no change | no change | 0.82 | inactive |
| hsa-miR-338-3p | SID160648064 | 0.81 | -0.55 | no change | no change | 0.92 | inactive |
| hsa-miR-128 | SID160647966 | 0.26 | -0.09 | no change | no change | 0.83 | inactive |
| hsa-miR-323-5p | SID160648399 | -2.81 | -0.4 | no change | no change | 0.37 | inactive |
| hsa-miR-500* | SID160648167 | 0.08 | -0.76 | no change | no change | 0.8 | inactive |
| hsa-miR-450b-5p | SID160648520 | -0.01 | -0.02 | no change | no change | 0.8 | inactive |
| hsa-miR-675* | SID160648599 | -0.44 | -0.72 | no change | no change | 0.73 | inactive |
| hsa-miR-875-3p | SID160648533 | 0.38 | -0.31 | no change | no change | 0.82 | inactive |
| hsa-miR-302b | SID160648027 | 0.24 | 1.21 | no change | no change | 0.84 | inactive |
| hsa-miR-1180 | SID160648612 | -1 | 0.6 | no change | no change | 0.57 | inactive |
| hsa-miR-105 | SID160647909 | -1.02 | -0.56 | no change | no change | 0.56 | inactive |
| hsa-miR-204 | SID160647938 | 0.16 | -0.75 | no change | no change | 0.82 | inactive |
| hsa-miR-2053 | SID160648745 | 0.36 | 0.12 | no change | no change | 0.85 | inactive |
| hsa-miR-577 | SID160648219 | 2 | -0.2 | no change | no change | 1.1 | inactive |
| hsa-miR-1471 | SID160648717 | 0.82 | -0.3 | no change | no change | 0.92 | inactive |
| hsa-miR-1324 | SID160648709 | 0.64 | 4.29 | no change | no change | 0.9 | inactive |
| hsa-miR-1321 | SID160648705 | -0.87 | 3.29 | no change | no change | 0.66 | inactive |
| hsa-miR-598 | SID160648242 | 1.34 | -0.24 | no change | no change | 1.01 | inactive |
| hsa-miR-548o | SID160648672 | 1.05 | -0.42 | no change | no change | 0.97 | inactive |
| hsa-miR-607 | SID160648251 | 0.4 | -0.74 | no change | no change | 0.86 | inactive |
| hsa-miR-152 | SID160647980 | 0.74 | 0.03 | no change | no change | 0.88 | inactive |
| hsa-miR-193b | SID160648119 | -3.8 | 2.27 | no change | no change | 0.16 | inactive |
| hsa-miR-342-3p | SID160648054 | 0.62 | -0.79 | no change | no change | 0.86 | inactive |
| hsa-miR-548h | SID160648681 | 1.23 | 0.28 | no change | no change | 0.97 | inactive |
| hsa-miR-589* | SID160648233 | 0.32 | 0.7 | no change | no change | 0.8 | inactive |
| hsa-miR-92a | SID160647899 | 0.34 | -0.12 | no change | no change | 0.84 | inactive |
| hsa-miR-100 | SID160647905 | 0.54 | 0.25 | no change | no change | 0.88 | inactive |
| hsa-miR-1258 | SID160648662 | -0.72 | 0.38 | no change | no change | 0.69 | inactive |
| hsa-miR-516-3p | SID160648158 | 0.52 | -0.45 | no change | no change | 0.88 | inactive |
| hsa-miR-16 | SID160647876 | -2.86 | 1.5 | no change | no change | 0.36 | inactive |
| hsa-miR-1827 | SID160648713 | -1.92 | 1.84 | no change | no change | 0.41 | inactive |
| hsa-miR-1206 | SID160648623 | 0.99 | -0.48 | no change | no change | 0.95 | inactive |
| hsa-miR-155 | SID160648007 | 0.28 | 0.69 | no change | no change | 0.8 | inactive |
| hsa-miR-922 | SID160648556 | 0.02 | 1.4 | no change | no change | 0.8 | inactive |
| hsa-miR-585 | SID160648227 | -0.94 | 0.65 | no change | no change | 0.66 | inactive |
| hsa-miR-219-2-3p | SID160648447 | -0.03 | 0.48 | no change | no change | 0.79 | inactive |
| hsa-miR-586 | SID160648229 | 0.78 | -0.42 | no change | no change | 0.89 | inactive |
| hsa-miR-579 | SID160648221 | -0.53 | -0.3 | no change | no change | 0.66 | inactive |
| hsa-miR-106b | SID160648008 | 0.64 | 0.12 | no change | no change | 0.9 | inactive |
| hsa-miR-659 | SID160648312 | 0.08 | 0 | no change | no change | 0.77 | inactive |
| hsa-miR-224 | SID160647954 | 0.06 | 0.12 | no change | no change | 0.76 | inactive |
| hsa-miR-556-3p | SID160648418 | -1.36 | 0.12 | no change | no change | 0.56 | inactive |
| hsa-miR-548p | SID160648687 | 0.93 | -0.53 | no change | no change | 0.94 | inactive |
| hsa-miR-548a-3p | SID160648228 | -0.1 | 0.02 | no change | no change | 0.78 | inactive |
| hsa-miR-197 | SID160647914 | -3.28 | 1.08 | reduced viability | no change | 0.16 | active |
| hsa-miR-557 | SID160648200 | 0.08 | 2.03 | no change | no change | 0.8 | inactive |

Part of the list above, set out differently:
miRNA	PubChem SID	viability robust z-score	caspase robust z-score	viability hit class	caspase hit class	viability vs mock transfection	outcome
hsa-miR-204	SID160647938	0.16	-0.75	no change	no change	0.82	inactive
hsa-miR-2053	SID160648745	0.36	0.12	no change	no change	0.85	inactive
hsa-miR-577	SID160648219	2	-0.2	no change	no change	1.1	inactive
hsa-miR-1471	SID160648717	0.82	-0.3	no change	no change	0.92	inactive
hsa-miR-1324	SID160648709	0.64	4.29	no change	no change	0.9	inactive
hsa-miR-1321	SID160648705	-0.87	3.29	no change	no change	0.66	inactive
hsa-miR-598	SID160648242	1.34	-0.24	no change	no change	1.01	inactive
hsa-miR-548o	SID160648672	1.05	-0.42	no change	no change	0.97	inactive
